Reference: article PMC13321232
No constants are given. Whether binding was seen depends on the method and setting. In cells and extracts the contact can be indirect. Some entries that bind do so weakly or less than the wild type. Where a sequence is shown, tags or fusion partners need not be part of it.

Target: T1, PXY-FLAG (insect cell construct) (Arabidopsis thaliana) (UniProt Q9FII5)
T1 sequence: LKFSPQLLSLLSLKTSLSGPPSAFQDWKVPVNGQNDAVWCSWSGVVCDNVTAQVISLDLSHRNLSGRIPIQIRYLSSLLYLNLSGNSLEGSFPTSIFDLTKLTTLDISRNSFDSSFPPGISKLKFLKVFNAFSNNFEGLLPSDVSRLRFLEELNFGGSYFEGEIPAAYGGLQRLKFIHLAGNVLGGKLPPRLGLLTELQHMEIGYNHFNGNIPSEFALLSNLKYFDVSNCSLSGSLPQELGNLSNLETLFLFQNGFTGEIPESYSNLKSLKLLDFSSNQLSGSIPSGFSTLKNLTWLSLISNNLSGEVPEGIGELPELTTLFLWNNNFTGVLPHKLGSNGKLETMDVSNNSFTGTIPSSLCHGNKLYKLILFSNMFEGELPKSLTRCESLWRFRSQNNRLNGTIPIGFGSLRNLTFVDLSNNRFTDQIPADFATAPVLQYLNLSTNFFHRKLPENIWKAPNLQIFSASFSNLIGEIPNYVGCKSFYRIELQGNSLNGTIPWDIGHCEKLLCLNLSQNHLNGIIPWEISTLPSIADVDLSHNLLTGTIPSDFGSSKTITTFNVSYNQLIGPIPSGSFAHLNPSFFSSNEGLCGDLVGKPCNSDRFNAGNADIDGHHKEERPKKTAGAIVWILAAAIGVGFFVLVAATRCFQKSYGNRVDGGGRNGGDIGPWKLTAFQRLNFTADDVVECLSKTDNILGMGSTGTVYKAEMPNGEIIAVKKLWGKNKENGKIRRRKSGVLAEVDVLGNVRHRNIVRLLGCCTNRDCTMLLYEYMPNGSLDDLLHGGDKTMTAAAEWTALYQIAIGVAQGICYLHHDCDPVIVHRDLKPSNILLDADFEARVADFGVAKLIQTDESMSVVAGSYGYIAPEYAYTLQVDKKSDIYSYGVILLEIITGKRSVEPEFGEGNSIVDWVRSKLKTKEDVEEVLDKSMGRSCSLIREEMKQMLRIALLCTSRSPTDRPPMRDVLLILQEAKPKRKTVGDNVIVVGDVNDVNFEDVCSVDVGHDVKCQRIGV
Assay: co-IP; PXY-flag and ER-twinstrep coexpressed in Sf21 cells; membranes solubilised in 2% DDM, diluted to 0.1% DDM; anti-FLAG M2 magnetic beads, 2 h at 4 °C; eluted with 3x FLAG peptide; Twinstrep-tag and Flag-tag immunoblots

B1: ER-twinstrep (insect cell construct) (receptor, UniProt Q42371 25-976)
chain: EEGATLLEIKKSFKDVNNVLYDWTTSPSSDYCVWRGVSCENVTFNVVALNLSDLNLDGEISPAIGDLKSLLSIDLRGNRLSGQIPDEIGDCSSLQNLDLSFNELSGDIPFSISKLKQLEQLILKNNQLIGPIPSTLSQIPNLKILDLAQNKLSGEIPRLIYWNEVLQYLGLRGNNLVGNISPDLCQLTGLWYFDVRNNSLTGSIPETIGNCTAFQVLDLSYNQLTGEIPFDIGFLQVATLSLQGNQLSGKIPSVIGLMQALAVLDLSGNLLSGSIPPILGNLTFTEKLYLHSNKLTGSIPPELGNMSKLHYLELNDNHLTGHIPPELGKLTDLFDLNVANNDLEGPIPDHLSSCTNLNSLNVHGNKFSGTIPRAFQKLESMTYLNLSSNNIKGPIPVELSRIGNLDTLDLSNNKINGIIPSSLGDLEHLLKMNLSRNHITGVVPGDFGNLRSIMEIDLSNNDISGPIPEELNQLQNIILLRLENNNLTGNVGSLANCLSLTVLNVSHNNLVGDIPKNNNFSRFSPDSFIGNPGLCGSWLNSPCHDSRRTVRVSISRAAILGIAIGGLVILLMVLIAACRPHNPPPFLDGSLDKPVTYSTPKLVILHMNMALHVYEDIMRMTENLSEKYIIGHGASSTVYKCVLKNCKPVAIKRLYSHNPQSMKQFETELEMLSSIKHRNLVSLQAYSLSHLGSLLFYDYLENGSLWDLLHGPTKKKTLDWDTRLKIAYGAAQGLAYLHHDCSPRIIHRDVKSSNILLDKDLEARLTDFGIAKSLCVSKSHTSTYVMGTIGYIDPEYARTSRLTEKSDVYSYGIVLLELLTRRKAVDDESNLHHLIMSKTGNNEVMEMADPDITSTCKDLGVVKKVFQLALLCTKRQPNDRPTMHQVTRVLGSFMLSEQPPAATDTSATLAGSCYVDEYANLKTPHSVNCSSMSASDAQLFLRFGQVISQNSE
In the case of B1, the binding is reported as “binds”.
